Measured values: PubChem BioAssay AID493014 (National Center for Advancing Translational Sciences (NCATS), 2011)
The other results are listed elsewhere or left out. These are further read-outs of the screen, such as a control signal, another cell line or another target. No call is given for them. Compounds called inactive in the main read-out are mostly missing here. The note in brackets gives the kind of curve behind each potency; many fits are weak.

Experiment: qHTS Assay to Find Inhibitors of Chronic Active B-Cell Receptor Signaling
Settings: ABC-DLBCL IkBa-CBG/CBR reporter, luminescence ratio (green luciferase fused to IkBa over red control in TMD8 lymphoma cells), 4 h
Outline: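 Doxycycline induced both beetle luciferases in TMD8 lymphoma cells; IKK-driven degradation limits the IkappaBalpha-fused green signal, while red luminescence normalises for cell number and nonspecific effects. Compounds tested up to 46 uM, 4 hrs.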

[1] = measured here: CBR red luminescence, cell number
[2] = measured here: IkBa-CBG green luminescence

Compound | AC50 [1] | AC50 [2]
FC(F)(F)c1ccc(CN2C[C@@H]3C(c4ccccc4)C4(c5cccnc5)CC3(C4)[C@H]2c2ccccc2)cc1 (some centres not stated) | 35.5 µM [falling, single point] | 
CCN1CCN(Cc2ccc(NC(=O)c3cc(NC(=O)N4CCNC4=O)cc(OC)c3)cc2C(F)(F)F)CC1 | 35.5 µM [falling, single point] | 
CCOC(=O)c1cc2occc2n1Cc1c(F)cccc1Cl | 6.51 µM [rising, single point] | 
COc1ccc(OCc2nc(-c3ccc(F)c(F)c3)cs2)cc1 | 0.891 µM [rising, full curve, poor fit] | 
COc1ccccc1Nc1nc(N)nc(CSc2nccc(C)n2)n1 | 8.2 µM [rising, partial curve, poor fit] | 
Cn1nc(-c2ccc(C(=O)Nc3cccc(Cl)c3)cc2)c2ccccc2c1=O | 1.84 µM [rising, partial curve, poor fit] | 
COc1cc(/C=C/C(=O)O)cc(S(=O)(=O)NCc2ccc3c(c2)OCO3)c1OC | 35.5 µM [falling, single point] | 
COc1ccc(-c2cc(=O)[nH][nH]2)cc1OC | 29.1 µM [falling, single point] | 
S=C(Nc1ccc(Cl)cc1)N(CCCN1CCOCC1)Cc1ccco1 | 29.1 µM [rising, single point] | 
Cc1ccc2cc(C#N)c(N3CCCN(S(=O)(=O)c4ccc(F)cc4)CC3)nc2c1 | 6.51 µM [rising, single point] | 
C/C(=N/Oc1nc(C)cc(C)n1)c1ccccc1 | 29.1 µM [falling, single point] | 
COc1ccc(C2=CSC3=NCCN23)cc1[N+](=O)[O-] | 35.5 µM [rising, single point] | 
CCCOC(=O)c1cccc(NC(=O)C(C)(C)C)c1 | 20.6 µM [rising, partial curve] | 
NC(=O)COc1cccc(/C=N/NC(=O)c2ccc(-n3cccc3)cc2)c1 | 12.6 µM [falling, partial curve, poor fit] | 
COc1ccc(Cn2cc3c(-c4ccc(F)cc4)nnc-3c3cc(OC)c(OC)cc32)cc1 | 6.51 µM [rising, single point] | 
C=CCOc1cccc(C(=O)/C=C2/C(=O)Nc3ccccc32)c1 | 35.5 µM [falling, single point] | 

Look-ups from the entries so far:
Entry of `FC(F)(F)c1ccc(CN2C[C@@H]3C(c4ccccc4)C4(c5cccnc5)CC3(C4)[C@H]2c2ccccc2)cc1` (some centres not stated) under AC50 [1]: 35.5 µM [falling, single point]
Entry of `COc1ccc(Cn2cc3c(-c4ccc(F)cc4)nnc-3c3cc(OC)c(OC)cc32)cc1` under AC50 [1]: 6.51 µM [rising, single point]

The results go on:

Compound | AC50 [1] | AC50 [2]
CC(C)CC(=O)NC(=S)Nc1ccc(N2CCOCC2)c(Cl)c1 | 35.5 µM [rising, partial curve, poor fit] | 
CC(=O)Nc1cccc(-n2nnc(SCC(=O)Nc3ccc(F)c(Cl)c3)n2)c1 | 2.24 µM [rising, partial curve] | 
O=C(Nc1nn(Cc2ccc(Cl)cc2)cc1Br)c1ccc(COc2ccccc2Cl)o1 | 1.46 µM [falling, full curve, poor fit] | 
Cc1ccc(OCCn2cnc(Cl)c2Cl)cc1 | 5.62 µM [rising, full curve, poor fit] | 
O=C(O)CC(NC(=O)OCc1ccccc1)c1ccccc1 (configuration not stated) | 11.2 µM [rising, partial curve] | 
Cc1cccc(NC(=O)c2cc(-c3cc(Cl)ccc3O)n[nH]2)c1 | 8.91 µM [falling, partial curve, poor fit] | 
C/C(CC(=O)Nc1ccc(N(C)C)cc1)=N\NC(=O)c1ccc(F)cc1 | 10 µM [falling, partial curve] | 
Nc1c(N(C(=O)Nc2ccc(Cl)c(Cl)c2)C2CCCC2)c(=O)[nH]c(=O)n1Cc1ccccc1 | 8.2 µM [rising, partial curve] | 
COc1cc(NC(=O)N2CCNC2=O)cc(C(=O)Nc2cccc(C(F)(F)F)c2)c1 |  | 35.5 µM [falling, single point]
COc1ccc(C(=O)CCN2CCN(c3ccc(OC)cc3)CC2)cc1 | 22.4 µM [falling, single point] | 
CCOCCOc1cccc(C(=O)NC(c2ccccc2)c2ccccc2)c1 | 10 µM [rising, partial curve, poor fit] | 
COc1ccc(-c2noc(CSc3nc(N)c(-c4ccccc4)c(=O)[nH]3)n2)cc1 |  | 4.11 µM [falling, partial curve]
O=C1C=C(c2ccc3[nH]ccc3c2)C[C@@H](c2ccc(Cl)cc2)C1 |  | 6.51 µM [rising, partial curve, poor fit]
O=C(Nc1cccc(C(F)(F)F)c1)C(Sc1n[nH]c(=O)[nH]c1=O)c1ccccc1 (configuration not stated) | 2.51 µM [falling, full curve] | 
C(=C\c1ccccc1)/CSc1nnc(-c2ccccn2)n1Cc1ccco1 | 29.1 µM [rising, single point] | 18.4 µM [falling, single point]
